From article PMC4605295, “The N-terminus of RPA large subunit and its spatial position are important for the 5′->3′ resection of DNA double-strand breaks” (Nucleic Acids Research, 2015)
These are yes or no findings as the source states them, for the method shown. Binding seen in cells or lysates may run through a third protein. Some entries that bind do so weakly or less than the wild type.

Protein sequences, listed by entry. Tags and fused reporters are not part of them. Residues count along the entry.
UniProt Q01588, residues 1-121: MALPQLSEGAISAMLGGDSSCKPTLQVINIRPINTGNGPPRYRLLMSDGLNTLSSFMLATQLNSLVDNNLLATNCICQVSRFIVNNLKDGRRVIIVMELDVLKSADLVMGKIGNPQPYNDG

Target: GST-RPA1N (N terminal 121 amino acids of Xenopus RPA1) (Xenopus) (UniProt Q01588)
Assay: pull-down; glutathione Sepharose beads coated with GST-RPA1N incubated with Xenopus egg extract (diluted 1:1 with ELB), 4°C 1 h; washed with buffer A + 150 mM NaCl + 0.005% NP-40; Western blot for WRN and DNA2; only the target purified

Binder | binding
Xenopus WRN in egg extract (protein, UniProt O93530 1-1436) MTSLQRKLPEWMSVKQQEDRIDDAKKSFCKKNILEDNLPFMKFNGSIVYSYESNDCSLLSEDIRSSLLEEDVLGFDIEWPPVYTKGKTGKVALIQVCVSEKKCYLFHISPMAGFPKGLKRLLEDESVRKVGVGIEGDQWKLMSDYELKLKGFIELSEMANQKLRCKEKWTFNGLIKHLFKEQLYKRKSYRCSNWDIFLLTEDQKLYAATDAYAGLLIYKKLEGMDAHESDSFRVGREGVADCKGVKRQLTDLSKGLMDLVNQVPNSFGCYTEAVRAVDILEDLSEKLEELRNIMKEASKAEGNGLHFQNSEDCSKKDKSILHVACKESLAEHKMDCKNADSQNNKDIDSCQNENRDEDFFMTLGISEEELYMMEREDDKKQTNPDYKLNKDSCDTNEEKDMSYVIESDEDFDSEIIKSLEDLDNSTEEALGTGVPQAGLIPAKSVDTVADEEEDEGIEEEDDDDDWDPSMPEPSAQHISCLKTYFGHSSFKPVQWKVVHSVLRERRDNLVVMATGYGKSLCYQFAPVYTSGIGIVICPLISLMEDQVLQLEMSNISSCFLGSAQSKNVLQDVKDGKMRVIYMTPEFCSRGISLLQDLDNRYGITLIAIDEAHCISEWGHDFRSAYRSLGSLKRMLPNVPIVALTATASPSIREDITKSLNLHNPQVTCTSFDRPNLYLDVARKTTNISIDLRQFLIKKQQGSGWEFEGATIVYCPTRKTSEQVTAELIKLGIACGTYHAGMGIKQRREVHHRFMRDEIHCVVATVAFGMGINKPDIRKVIHYGAPKEMESYYQEIGRAGRDGLPSCCHALWAQADMNFNRHMLGEIPNKGFREYKLKMLTKMEKYLNSSTCRRKIILSHFEDKQLRKASSGIMGTEKCCDNCKTRLICNISINDTEDNLQDFGPQAYKFISAVDVLGQKFGTGVPVLFLRGSTSQRVPDRFRNHSLFSSGKDQTEAFWKVLARQLITEGYLQESSGQTKFSTICGLTSKGSNWLIKANNEQCPSLLLPSNNELCLQRTRVSNFSSAQAHSSMVPHASSNTRSSMPKAGPEKMELKDKFSYQEAERLSKAAGVSKSSFKLQTPCKLSRPPEPEVSPRERELQTTLYGRLVVARQKIASERDILPAVLATNKVLVDMAKLRPTTSENMKKLDGVSEAKSAMLAPLLEVVKEFCIANSLKVDVFSGSVSQSESTFFTPREQERISLPESQRMSYSLFQEQNLSLKKIADVRCLSMAVVGMHLWQALKAGYSFDVQRAGLTPEMKKLITYAIKKPPINSDLSSFKAIREYVPANIDGYPIRMVISLLEKEGSSGAQGQPEFPTQKTLIQTEENPKNVSVQNTKHKVTMGKSMWIEKKPTQPATAELEVTKGKALAPIMLASWNEASLDADTEELFSESQSSTTRPRRRLPEWFGSTKGNAATRCIQESKNLGEEKGSFFD | binds
Xenopus DNA2 in egg extract (protein, UniProt Q8QHA5 1-1053) MEPVSAECHLPPEDDLLEMMMEQSFTEPEEKSQDKPTRKIIPKTKLCKGVNNRYCVLHIKEVYAQREEKHLTITASQEGDDLELCILKDDWVALQIKPGDIIHLEGNCSVDNTWTISRDTGYLILYPDLLISGTSIANGIRCLRRSVLSEKFKVCDKGSRQMLNGTMLHDIFQRATTCGFTDSVLQELAHHTVHGPKYLKEMYQLKLNQADVMGEIQEYLPSLSKWATDFMTHPLNQQQINRTKSTAGDPTETTKVSEFLDIEENIWSPRFGLKGKIDVTARVKIHQKSKAHLKIMPLELKTGKESNSIEHRSQVVLYTLLSQERREDPEAGLLLYLKTGNMYTVPGNRLDRRELLKIRNELSYYLTNVLHKSDNGSKETTLASLPAMIADRQACKYCSQMRNCALYNRSVEQQTENCYIPPEMIPVVQKETEHLTEDHLQYFRLWYLMCTLEANSKDSKMGRKNIWMMSSSEREEDGQCIGNLIRTGHVQTISDVQYLHSFQRRSGSVPATNLASGDRVVVSGEERFLALSTGYIKEVKDENITCILDRSLVKLPEDLLFRLDHEEGGGGLEFHLGNLSRLMENSSVSEKLRKLIIDFSKPNFVQHLSSILPPDAKDIVASILRGLNKPQKQAMKRVLLSKDYTLIVGMPGTGKTTTICTLVRILYACGFSVLLTSYTHSAVDNILLKLKKFQVGFLRLGRTQKLHPDVQEFSEEEICKAKSIKSLSALEELYNSQPVVATTCMGVNHPIFTRRRFDFCIVDEASQISQPICLGPLFFADRFVLVGDHQQLPPLVKSAEARELGMSESLFKRLERNQEAVVQLTVQYRMNSKIMALSNKLVYEGRLECASDRVSNAVVQLPHIKTLLLELEFRESQESMWIKDVLEPSNPVCFLNTEKIPALETEEKGGISNWIEAKLVFHLTKLYLKAGCRPSDIGIIAPYRQQLKMISNYFNSLSASAVEVNTVDKYQGRDKSVIIVSFVRSNIDGKLGDLLKDWRRLNVALTRAKHKLIMLGCVPTLNRFDCLEQLICNLKTENQIYDLPEGAHEHFPV | binds
